Results reported in PMC5457438.
Negatives hold for the conditions tested. At least one verdict rests on a figure or table, not on a statement of the authors. Protein sequences can lack the tags named with them.

System: T1, MaeR D54A (Lacticaseibacillus (Lactobacillus) casei BL23)
T1 sequence (looked up): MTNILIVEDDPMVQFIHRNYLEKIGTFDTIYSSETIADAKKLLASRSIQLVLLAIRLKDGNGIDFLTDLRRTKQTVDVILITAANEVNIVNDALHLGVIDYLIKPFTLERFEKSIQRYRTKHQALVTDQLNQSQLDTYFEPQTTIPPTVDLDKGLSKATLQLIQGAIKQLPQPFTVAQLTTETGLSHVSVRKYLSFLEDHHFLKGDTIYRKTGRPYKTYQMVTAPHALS
Test: EMSA
Details: acetylP 1-10 mM; EMSA: 15 ul of 2.5 mM Tris-HCl pH 7.5, 100 mM NaCl, 25 mM MgCl2, 0.25 mM EDTA, 0.25 mM DTT, 10% glycerol, 1.5 ug salmon sperm DNA, 100 ng DNA, 62-375 ng protein; recombinant protein; residues 1-229; protein details: His tag (pQE80-type vector, HisTrap purified); probe letters rebuilt from the primers and the genome

“CGTTGATTTGTTGGGTGTAACCGTCTTGTTCTCCATGTTTCCTTACCCCCAATCTTTTGTTACTTACAGCATATTGTAAGCGCTTCATCAGGGGAAGATTATTTAACTTATTAAACCATAAACCCATTTATTTAAGCGATTGTTTTACTATTCACAAGATGGTTTCTCTACTGAACAGGAGTATGATCATGAAAATAAAAGGATGGCGGCTATGGGGCT (double strand) [mae promoter (maeP-maeK intergenic region, 219 bp)]”: no binding.
